Measured values reported in PubChem BioAssay AID1671190 (National Center for Advancing Translational Sciences (NCATS), 2021).
About 6,100 (1.1%) of roughly 580,000 compounds were called active. The inconclusive results got no clear call from the source; some entries with a clear call stand among them for comparison. Calls come from the whole dose curve; as a rule, active = well fitted inhibition curve with a large enough effect; inconclusive = small, poorly fitted or top-dose-only effect, or another doubt; inactive = no such curve, though single readings can be large or run the other way. Potencies beside an inconclusive call are fits to weak or partial responses and may not hold up.

Sequences of proteins named here, by UniProt entry; tags and fusion partners are left off. A change or cut given only in a name is not applied to a line headed by its entry.
UniProt P18054: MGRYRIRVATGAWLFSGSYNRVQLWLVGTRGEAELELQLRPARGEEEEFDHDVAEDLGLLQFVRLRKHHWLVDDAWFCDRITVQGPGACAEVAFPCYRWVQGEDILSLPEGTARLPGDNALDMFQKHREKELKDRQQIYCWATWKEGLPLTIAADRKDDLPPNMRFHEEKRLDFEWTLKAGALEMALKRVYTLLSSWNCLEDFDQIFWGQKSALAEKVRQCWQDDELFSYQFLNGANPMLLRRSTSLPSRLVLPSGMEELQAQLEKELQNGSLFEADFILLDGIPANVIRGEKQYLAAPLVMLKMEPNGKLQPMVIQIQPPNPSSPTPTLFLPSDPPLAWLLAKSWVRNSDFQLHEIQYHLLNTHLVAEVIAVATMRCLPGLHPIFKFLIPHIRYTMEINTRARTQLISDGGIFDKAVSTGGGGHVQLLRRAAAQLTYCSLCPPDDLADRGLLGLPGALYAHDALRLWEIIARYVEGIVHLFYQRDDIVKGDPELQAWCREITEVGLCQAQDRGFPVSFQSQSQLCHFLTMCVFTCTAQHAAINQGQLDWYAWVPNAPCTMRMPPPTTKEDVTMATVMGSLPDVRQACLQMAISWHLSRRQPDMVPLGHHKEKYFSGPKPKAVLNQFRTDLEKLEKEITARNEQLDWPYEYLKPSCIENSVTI

target: Polyunsaturated fatty acid lipoxygenase ALOX12 (Homo sapiens) (UniProt P18054); assay: Primary qHTS assay for inhibitors of human arachidonate 12S-lipoxygenase (ALOX12): Round 2; settings: purified 12hLO, xylenol orange hydroperoxide absorbance; activity change, negative = inhibition: at 108 µM (top of the series) unless noted
Summary of the method: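 Purified human 12hLO at 150 nM in 25 mM Hepes, 0.01% Triton X-100, pH 7.0, preincubated 15 min at room temperature with compound. Reaction started with 40 uM arachidonic acid, 30 min at room temperature. Hydroperoxide measured by Fe-xylenol orange, 573/405 nm absorbance ratio.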
% is set by controls: 0 for no effect and ±100 for the full control effect; potency is the fitted concentration of half-maximal effect.

Compound	Potency	activity change, negative = inhibition
COc1ccc(C(=O)N[C@H]2C[C@H]3C(=O)NC[C@@H](CCC(=O)NCc4ccccc4)N3C2)cc1	inconclusive: 39.8 µM [inhibitor, partial curve]	–
CCC(C(=O)NC1CCCC1)N(Cc1ccccc1Cl)C(=O)c1snc(C(N)=O)c1N (centres undefined)	–	inactive: 0.847%
Cc1noc(C)c1C(=O)OCC(=O)Nc1ccc(C(N)=O)cc1	–	inactive: 2.65%
Cn1c(=O)[nH]c(=O)c2c1nc(SCC(=O)O)n2CCCc1ccccc1	inconclusive: 12.6 µM [inhibitor, full curve, poor fit]	–
CCC(c1nnnn1Cc1ccc(OC)cc1)N1CCN(C(=O)c2ccco2)CC1 (centres undefined)	inconclusive: 39.8 µM [inhibitor, single point]	–
COc1cc(Br)cc(-c2nc3c(c(=O)[nH]c(=O)n3Cc3ccccc3)n2C)c1O	–	inactive: 0%
CCOc1cccc(CN2CCCC(COc3ccccc3C(=O)NC(C)C)C2)c1 (centres undefined)	–	inactive: 26%
COc1cccc(CN2CC3(CCN(C)CC3)c3c(n(C)c4cc(OC)ccc34)[C@H]2CO)c1	inconclusive: 56.2 µM [inhibitor, partial curve, poor fit]	–
Cc1ccc(S(=O)(=O)N2CCOCC2)cc1NC(=O)C(c1ccc(Cl)cc1)C(C)C (centres undefined)	–	inactive: -16.1%
COc1cccc(CN(C)C(=O)c2cc(-c3ccc(OC)c(OC)c3)nc3ccccc23)c1	inconclusive: 35.5 µM [inhibitor, single point]	–
Cc1ccc(-c2noc([C@@H]3CCCN3C(=O)c3ccc(C(C)(C)C)cc3)n2)cc1	inconclusive: 17.8 µM [inhibitor, full curve]	–
O=C(CSc1nnc(-c2cccnc2)n1Cc1ccco1)N1c2ccccc2Sc2ccccc21	active: 31.6 µM	–
CCCCc1nn(-c2ccccc2C(F)(F)F)c(=O)n1Cc1ccc(-c2ccccc2S(=O)(=O)NC(=O)c2sccc2C)cc1	inconclusive: 44.7 µM [inhibitor, partial curve, poor fit]	–
CCc1ccc(/C=C2\CN(CC)Cc3c2nc2ccccc2c3C(=O)O)cc1	inconclusive: 4.47 µM [inhibitor, full curve, poor fit]	–
Cc1occc(=O)c1OC(=O)Nc1ccccc1	inconclusive: 4.47 µM [inhibitor, full curve, poor fit]	–
O=C(c1nc(-c2ccc(Cl)cc2)c2ccccn12)N1CCN(c2ncccn2)CC1	inconclusive: 22.4 µM [inhibitor, full curve]	–
c1ccc(-c2ccc(OCCCn3cncn3)cc2)cc1	active: 1.41 µM	–
COC(=O)Nc1ccc2c(c1)N(C(=O)CCN(C)C)c1ccccc1CC2	inconclusive: 10 µM [inhibitor, partial curve, poor fit]	–
O=C(NCc1ccc(F)cc1)c1cc(-c2cnccc2Cl)c2cccn2n1	inconclusive: 89.1 µM [inhibitor, partial curve, poor fit]	–
COc1cc(OC)cc(C(=O)N2CCN(Cc3ccccc3[N+](=O)[O-])CC2)c1	inconclusive: 0.891 µM [inhibitor, full curve, poor fit]	–
CCOC(=O)N1CCN(C(=O)c2cc3sccc3n2Cc2ccccc2F)CC1	–	inactive: 2.51%
CCCc1ccc(NC(=O)c2n[nH]c(=O)c3ccccc23)cc1	inconclusive: 0.126 µM [inhibitor, full curve, poor fit]	–

Look-ups from the list.
For activity change, negative = inhibition, CCC(C(=O)NC1CCCC1)N(Cc1ccccc1Cl)C(=O)c1snc(C(N)=O)c1N (centres undefined) is listed with inactive: 0.847%
For Potency, Cn1c(=O)[nH]c(=O)c2c1nc(SCC(=O)O)n2CCCc1ccccc1 is listed with inconclusive: 12.6 µM [inhibitor, full curve, poor fit]

Next structures follow:

Compound	Potency	activity change, negative = inhibition
CCc1cc(OCCCCNCc2ccccc2)ccc1Cl	inconclusive: 44.7 µM [inhibitor, partial curve, poor fit]	–
CCSc1ccc2c(c1)N(CCCN1CCN(C)CC1)c1ccccc1S2	inconclusive: 44.7 µM [inhibitor, partial curve, poor fit]	–
O=C(Nc1ccc(C(=O)O)cc1)/C(=C\c1ccc([N+](=O)[O-])cc1)NC(=O)c1ccco1	inconclusive: 126 µM [inhibitor, single point]	–
COC(=O)c1cc(C(=O)OC)n(Cc2ccc(C)cc2)c1C	inconclusive: 25.1 µM [inhibitor, partial curve, poor fit]	–
Cc1nc(SCCO)c([N+](=O)[O-])[nH]1	active: 25.1 µM	–
CN(C)C(=O)C1C2NC(=S)N(c3ccccc3)C1(C)Oc1ccccc12 (centres undefined)	inconclusive: 63.1 µM [inhibitor, partial curve, poor fit]	–
Fc1ccc(-c2cnc3n2C[C@H](CNCc2ccc4c(c2)OCO4)OC3)cc1	active: 22.4 µM	–
CC/C=C\CCOC(=O)C(C)C	–	inactive: 6.36%
CC1CCC(NC(=O)c2cc(Cl)ccn2)CC1 (centres undefined)	inconclusive: 39.8 µM [inhibitor, partial curve, poor fit]	–
Oc1ccc(-c2nccc(-c3ccc(Br)cc3)n2)cc1	inconclusive: 44.7 µM [inhibitor, partial curve, poor fit]	–
Cc1nc2ccc(NC3=NCCCCC3)cc2s1	inconclusive: 39.8 µM [inhibitor, partial curve, poor fit]	–
CC(C)CNC(=S)NC(=O)c1ccc(Cl)cc1	active: 8.91 µM	–
Cc1ccc(O)c(-c2n[nH]c3c2C(c2ccc(F)cc2)N(Cc2ccco2)C3=O)c1 (centres undefined)	inconclusive: 112 µM [inhibitor, partial curve, poor fit]	–
COc1ccc(NS(=O)(=O)c2ccc(OCC(=O)N3CCOCC3)cc2)cc1	–	inactive: 0.936%
CCCCNC(=O)c1nc(C2CCN(S(=O)(=O)c3ccccc3C(F)(F)F)CC2)oc1-c1cccc(C(F)(F)F)c1	–	inactive: 0%
C[C@]12CC[C@H](O)CC1=CC[C@@H]1[C@H]2CC[C@]2(C)C(c3cccnc3)=CC[C@H]12	inconclusive: 7.49 µM [inhibitor, single point]	–
CCn1c(SCC(=O)NC(C)c2ccc3c(c2)CCCC3)nnc1C1CC1 (centres undefined)	–	inactive: 11.3%
COC(=O)c1c(-c2c(Cl)cccc2Cl)noc1NC(=O)N(C)C	inconclusive: 3.16 µM [inhibitor, full curve, poor fit]	–
O=C(COc1coc(CN2CCc3ccccc32)cc1=O)N1CCCCC1	–	inactive: -8.99%
COc1ccc(/C=C2\SC(=S)N(N3C(=O)CCC3=O)C2=O)cc1O	inconclusive: 44.7 µM [inhibitor, partial curve]	–
CCOC(=O)Nc1sc2c(c1C#N)CCCC2	inconclusive: 126 µM [inhibitor, partial curve, poor fit]	–
CN1CCN(c2ccc(S(=O)(=O)N3CCCCC3)cc2NC(=O)c2cccc([N+](=O)[O-])c2)CC1	inconclusive: 5.01 µM [inhibitor, full curve, poor fit]	–

Compound	Potency	activity change, negative = inhibition
Cc1ccc2c(nc3s/c(=C\c4ccc(-c5ccccc5C(=O)O)o4)c(=O)n32)c1C	inconclusive: 44.7 µM [inhibitor, partial curve, poor fit]	–
Cc1c(O)cccc1C(=O)N[C@@H](CSc1ccccc1)[C@H](O)CN1C[C@H]2CCCC[C@H]2C[C@H]1C(=O)NC(C)(C)C	inconclusive: 44.7 µM [inhibitor, partial curve, poor fit]	–
CC(C)(C)c1cc(C(=O)NCc2ccccc2)ccn1	–	inactive: 11.5%
CCOc1ccc(N(CC(=O)N/N=C/c2ccc(OC(C)C)cc2)S(C)(=O)=O)cc1	inconclusive: 50.1 µM [inhibitor, partial curve, poor fit]	–
COc1ccc(S[C@]2(C(=O)N3CCOCC3)CC(=O)N(c3ccc4ccccc4c3)[C@@H]2c2ccc(OC)cc2)cc1	inconclusive: 126 µM [inhibitor, single point]	–
Cc1cc(Cl)ccc1C(=O)C1CCCN(C(=O)c2ccoc2)C1 (centres undefined)	–	inactive: -3.49%
CC(C)[C@H]1COCCS(=O)(=O)N1Cc1ccccc1-c1ccc(F)cc1	inconclusive: 35.5 µM [inhibitor, partial curve]	–
Clc1ccc(CN2CCc3c([nH]c4ccccc34)C2)cc1Cl	inconclusive: 5.01 µM [inhibitor, full curve]	–
CCc1nccc(-c2c(-c3ccccc3)ncn2CC(O)c2ccccc2)n1 (centres undefined)	–	inactive: 47.8%
COCc1cc(=O)n2[nH]c(C)c(-c3ccccc3)c2n1	inconclusive: 35.5 µM [inhibitor, single point]	–
CN1CCc2c([nH]c3ccccc23)C12CCN(C(=O)C1CC1)CC2	inconclusive: 4.47 µM [inhibitor, full curve, poor fit]	–
CCOC(=O)c1sc(NC(=O)C2CC(=O)N(c3n[nH]c4ccccc34)C2)nc1C (centres undefined)	inconclusive: 39.8 µM [inhibitor, partial curve]	–
COc1ccccc1N1CCN(C(=O)C2CCCN(S(C)(=O)=O)CCC(=O)NCC2)CC1 (centres undefined)	–	inactive: 51.9%
Cc1ccc(-c2nn(C)c(=O)c3ccccc23)cc1S(N)(=O)=O	–	inactive: 12%
CCOC(=O)c1cnc2ccc(OCC)cc2c1Nc1ccc(OCc2ccccc2Cl)cc1	inconclusive: 44.7 µM [inhibitor, partial curve, poor fit]	–
CC(=O)c1cc(-c2ccc(F)cc2)n(CCC(=O)Nc2nc3ccc(C)cc3s2)c1C	inconclusive: 70.8 µM [inhibitor, partial curve, poor fit]	–
O=C(CSc1nc2cc(Cl)ccc2s1)NC1CCCCCCC1	inconclusive: 126 µM [inhibitor, single point]	–
Cc1ccc(-c2cc(C(=O)N3CCN(c4ncccn4)CC3)c3cc(Br)ccc3n2)o1	inconclusive: 15.8 µM [inhibitor, partial curve, poor fit]	–
Cn1ncc(Cl)c1C(=O)N1CCC(Cc2ccccc2)CC1	inconclusive: 8.91 µM [inhibitor, full curve, poor fit]	–
c1ccc(-c2noc(-c3ccn4c(CN5CCN(c6ccccn6)CC5)nnc4c3)n2)cc1	–	inactive: 60.7%
